Values from PubChem BioAssay AID652272 (Drosophila RNAi Screening Center, 2013)
In all, the deposit lists about 21,000 reagents; shown is an unselected part of those with a known target gene and a result. In the full data, 503 (2.4%) are marked active. 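Raw plate light values, not normalised; calls rest on replicate z-scores that were not deposited; hits include reporter decreases as well as increases.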 Unmarked entries are inactive. A plus sign joins genes that one reagent is predicted to hit. Not stated in the record: the amount of reagent, the time to read-out.

Aim: 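Finding fly genes that regulate Hedgehog signal transduction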 (primary screen)
System: Drosophila clone 8 (Cl8) cells
Reagents: long dsRNA against Drosophila genes
Detection: 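Firefly light from a Hedgehog-responsive ptc promoter reporter and Renilla reference light, both read on a plate reader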
Direction: firefly Hh reporter signal: higher = more ptc reporter light; Renilla reference signal: higher = more Renilla control light
Call rule: 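Hit when the z-score averaged over two replicates is under -2 or over +3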
Calls: active = hit: reporter lowered or raised; inactive = not a hit

no.	gene	dsRNA	firefly Hh reporter signal, replicate 1	firefly Hh reporter signal, replicate 2	firefly Hh reporter signal, replicate 3	Renilla reference signal, replicate 1	Renilla reference signal, replicate 2
1	Nulp1	DRSC09677	1.27e5	83559		4704	3008
2	Ir94h	DRSC15232	4.90e5	84310		27379	2258
3	Atg8b	DRSC14501	5.21e5	95401		20812	2472
4	CG7264	DRSC10793	50688	44994	52676	4538	3930
5	CG6479	DRSC10647	64903	91835		2581	3600
6	mRpS10	DRSC15557	1.01e5	83552		3643	2650
7	MESK2 + CG10494	DRSC04259	64676	44249		1766	4482
8	CG1503	DRSC20512	81482	97528		1952	1975
9	CG13016	DRSC06271	1.22e5	39424		2582	153
10	Slmap	DRSC03799	51050	43923		1495	4345
11	Ork1	DRSC20266	95778	87381		2105	2032
12	CG2076	DRSC19832	78744	1.72e5		2195	6486
13	cona	DRSC16281	6.35e5	1.11e5		35105	3114
14	CIAPIN1	DRSC03559	75808	64189		3812	3651
15	DCP2	DRSC09399	2.72e5			6544	
16	DCP2	DRSC10597	66534	36128		3129	1699
17	Pdha	DRSC18413	70465	1.59e5		1945	6108
18	CG7766	DRSC18424	70011	77715		1863	1572
19	CG10486	DRSC09735	62166	43617		6677	3446
20	CG8173	DRSC20088	83977	2.33e5		2999	7879
21	ND-B18	DRSC19947	75675	2.05e5		2272	8208
22	CG6738	DRSC16104	4.82e5	93248		25638	3500
23	hog	DRSC19057	4.66e5	2.01e5		25906	4922

Reformatted: 4 of the entries above
CG8173 [DRSC20088] → firefly Hh reporter signal, replicate 1: 83977; firefly Hh reporter signal, replicate 2: 2.33e5; Renilla reference signal, replicate 1: 2999; Renilla reference signal, replicate 2: 7879
ND-B18 [DRSC19947] → firefly Hh reporter signal, replicate 1: 75675; firefly Hh reporter signal, replicate 2: 2.05e5; Renilla reference signal, replicate 1: 2272; Renilla reference signal, replicate 2: 8208
CG6738 [DRSC16104] → firefly Hh reporter signal, replicate 1: 4.82e5; firefly Hh reporter signal, replicate 2: 93248; Renilla reference signal, replicate 1: 25638; Renilla reference signal, replicate 2: 3500
hog [DRSC19057] → firefly Hh reporter signal, replicate 1: 4.66e5; firefly Hh reporter signal, replicate 2: 2.01e5; Renilla reference signal, replicate 1: 25906; Renilla reference signal, replicate 2: 4922
